Some of the results follow.

Amino acid sequences for entries named in this document (tags omitted).
UniProt Q0JBA9, entry or part of it: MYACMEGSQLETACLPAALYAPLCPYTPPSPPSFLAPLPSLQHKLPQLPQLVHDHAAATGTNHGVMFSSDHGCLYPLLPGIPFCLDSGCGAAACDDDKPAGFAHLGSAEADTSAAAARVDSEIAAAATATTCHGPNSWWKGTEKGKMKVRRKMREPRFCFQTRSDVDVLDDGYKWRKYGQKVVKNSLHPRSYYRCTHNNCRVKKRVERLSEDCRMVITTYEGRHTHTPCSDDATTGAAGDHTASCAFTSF

In the test the target is OsWRKY34 (Oryza sativa, UniProt Q0JBA9 1-250). In words: protein-binding microarray (RPBM); PBS, 2% BSA, 51.3 ng/ul salmon testes DNA, 50 uM zinc acetate, 200 nM TF, 25 C, 1 h; high values mean tight binding. Particulars: protein: recombinant; tags: N-terminal polyhistidine and DsRed monomer fusion (pET32a); label: CyDye5-dUTP incorporated in the synthesized complementary strand; 3' TTTTT single-stranded linker to array surface; dsDNA, one strand shown. The method, boiled down:
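In PBS with 2% BSA, salmon testes DNA and 50 µM zinc acetate, 200 nM protein was incubated on a custom Agilent array at 25 °C for 1 h and then washed off. The array had been made double-stranded by primer extension with Cy5-dUTP and blocked with 2% BSA. The proteins were transcription factors fused N-terminally to polyhistidine and DsRed, expressed in E. coli BL21-CodonPlus and purified on Ni–NTA. The binding signal is per-feature fluorescence intensity (arbitrary units) from an Axon 4000B scanner.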
As for “GTGGTGGTGCTGCTGCATTGGGTGCGTCGTGGGTGGATTCCGGAGTCACCTAGTGCAG”, the binding signal was 8440 fluorescence intensity (a.u.).

For the sequence “CCTGCCTGCCTGCCTGCCTGCTGCGTTTCGATCGATATCCCGGAGTCACCTAGTGCAG”, the binding signal was 9760 fluorescence intensity (a.u.).

On to “CCTTTCGTTCTGTATGTTAGCCATCAATCTTTAATGTTTGCGGAGTCACCTAGTGCAG”, for which the binding signal was 9850 fluorescence intensity (a.u.).

For the sequence “TATTTAACTGTACATGATCTTTGGTTAGGTAAGACAAACACGGAGTCACCTAGTGCAG”, the binding signal is 8870 fluorescence intensity (a.u.).

Turning to “GAACTCCCACTCACTAGTAGCACTTACTTGTAGCTATTGACGGAGTCACCTAGTGCAG”, the binding signal is 8630 fluorescence intensity (a.u.).

Consider “CACGAAACACCACACGTCATCGCTGCAGTAAACGCCATCACGGAGTCACCTAGTGCAG”, for which the binding signal is 9220 fluorescence intensity (a.u.).

In the case of “TCCCGCTTTCGCGAATCACCGTGGTCTCACGATTTTTGTTCGGAGTCACCTAGTGCAG”, the binding signal is 10200 fluorescence intensity (a.u.).

“CATAGGTGATCAAATCAATCAGTTGGGTCTGTTGGGTGGGCGGAGTCACCTAGTGCAG”: the binding signal is 12400 fluorescence intensity (a.u.).

Take “CCGGCCCAACACCACTAACACGTTCAGCCCCAATCCCCAACGGAGTCACCTAGTGCAG”: the binding signal is 8200 fluorescence intensity (a.u.).

With “GTCTCTACCTGGGCGCTTCGAAACATGTTAATCCAGCAGACGGAGTCACCTAGTGCAG”, the binding signal is 8530 fluorescence intensity (a.u.).

For “GCGGCTGCTCATCAACATCTACGCCATCGGCCGCGACCCGCGGAGTCACCTAGTGCAG”, the binding signal was 8080 fluorescence intensity (a.u.).

In the case of “CTTTCCTGCACCTCCACTTTATTTAGTTCATTAATTGAATCGGAGTCACCTAGTGCAG”, the binding signal was 8660 fluorescence intensity (a.u.).

For “TTCCATTGCTCAACTTATGTTCTGCAAGTTGATACGCATTCGGAGTCACCTAGTGCAG”, the binding signal was 8230 fluorescence intensity (a.u.).

Take “GTTCTGTATGTTGGAAAGCCAATGTATCATATTATTATTTCGGAGTCACCTAGTGCAG”: the binding signal was 8760 fluorescence intensity (a.u.).

With “AGTTGATTTTGGGGTTTTTTCATCGAAGTTTCTTTTTCAGCGGAGTCACCTAGTGCAG”, the binding signal was 9720 fluorescence intensity (a.u.).

With “CCAAGAATCCAATCTGGAAGTCGTCTGCCTTTAATATTGTCGGAGTCACCTAGTGCAG”, the binding signal was 9110 fluorescence intensity (a.u.).

On to “GCGAAATATCTCACCTCACGTAGCTCTCGCCCCGGAAGACCGGAGTCACCTAGTGCAG”, for which the binding signal is 9740 fluorescence intensity (a.u.).

As for “ATGTAAATTCAATATCTTTCAACTGTTAGTTTTATTGTCACGGAGTCACCTAGTGCAG”, the binding signal was 10900 fluorescence intensity (a.u.).

Consider “CCTGACCCGACTCGCATTATAGCATTTAGCCCGCACCAGTCGGAGTCACCTAGTGCAG”, for which the binding signal was 8830 fluorescence intensity (a.u.).

On to “ACACTCAAACGACACTTCACGCATCTCTCCTGAAATCTTGCGGAGTCACCTAGTGCAG”, for which the binding signal was 8780 fluorescence intensity (a.u.).

Turning to “TTACTCCCGAATGATCCTTTTGCTACATTCCCAATCTATCCGGAGTCACCTAGTGCAG”, the binding signal was 8490 fluorescence intensity (a.u.).

In the case of “CTCGTCGTCGTCCTCGTCCTCAGTCTTCACCTTTGCTCCCCGGAGTCACCTAGTGCAG”, the binding signal is 9320 fluorescence intensity (a.u.).

For the sequence “CCCTACCTGGCGCGCCACTATCGACGTTTGATGTCGCGATCGGAGTCACCTAGTGCAG”, the binding signal was 9340 fluorescence intensity (a.u.).
